These are yes or no findings as the source states them, for the method shown. Binding seen in cells or lysates may run through a third protein. A result given as binding can be weak or reduced; the word gives no strength.
Experiments:
[1] = molecular target: FGFR3-FLAG (UniProt P22607); experiment: co-IP; FGFR3-FLAG immunoprecipitated with an anti-FLAG antibody from HT22 cells overexpressing FGFR3-FLAG and given extracellular tau; blot for tau
[2] = molecular target: extracellular human tau P301L from tau-conditioned medium (TCM) (human) (UniProt P10636); experiment: co-IP; tau immunoprecipitated with the anti-human tau antibody Tau13 from lysates of recipient HT22 cells (given tau-conditioned medium); blots for FGFR3 and LRP1

By UniProt entry, the sequences of proteins in these tests, tags left out. Where a name states a change or a piece, a line headed by the entry shows the natural chain unless it says otherwise. Residues count along the entry.
UniProt P22607, residues 23-806: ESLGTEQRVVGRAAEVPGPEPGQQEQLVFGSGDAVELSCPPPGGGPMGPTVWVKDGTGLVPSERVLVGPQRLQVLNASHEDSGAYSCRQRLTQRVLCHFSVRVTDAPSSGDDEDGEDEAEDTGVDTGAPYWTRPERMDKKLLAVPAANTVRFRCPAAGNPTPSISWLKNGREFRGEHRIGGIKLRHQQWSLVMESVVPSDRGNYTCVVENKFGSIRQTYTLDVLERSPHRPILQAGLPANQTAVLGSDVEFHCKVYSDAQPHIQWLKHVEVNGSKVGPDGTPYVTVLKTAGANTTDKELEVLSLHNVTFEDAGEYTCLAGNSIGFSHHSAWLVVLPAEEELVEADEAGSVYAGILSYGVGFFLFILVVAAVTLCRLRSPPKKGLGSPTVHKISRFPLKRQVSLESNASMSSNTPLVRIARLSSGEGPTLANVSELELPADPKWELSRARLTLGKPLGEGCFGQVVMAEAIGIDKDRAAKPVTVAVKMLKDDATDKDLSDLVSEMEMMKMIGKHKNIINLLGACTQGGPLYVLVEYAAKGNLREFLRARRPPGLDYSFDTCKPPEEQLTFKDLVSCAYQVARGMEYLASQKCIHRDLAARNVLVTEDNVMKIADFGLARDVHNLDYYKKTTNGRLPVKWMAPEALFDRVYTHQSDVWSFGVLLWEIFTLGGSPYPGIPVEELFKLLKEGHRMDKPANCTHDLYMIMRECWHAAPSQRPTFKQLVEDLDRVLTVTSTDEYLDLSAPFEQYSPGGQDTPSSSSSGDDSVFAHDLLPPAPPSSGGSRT
UniProt P10636: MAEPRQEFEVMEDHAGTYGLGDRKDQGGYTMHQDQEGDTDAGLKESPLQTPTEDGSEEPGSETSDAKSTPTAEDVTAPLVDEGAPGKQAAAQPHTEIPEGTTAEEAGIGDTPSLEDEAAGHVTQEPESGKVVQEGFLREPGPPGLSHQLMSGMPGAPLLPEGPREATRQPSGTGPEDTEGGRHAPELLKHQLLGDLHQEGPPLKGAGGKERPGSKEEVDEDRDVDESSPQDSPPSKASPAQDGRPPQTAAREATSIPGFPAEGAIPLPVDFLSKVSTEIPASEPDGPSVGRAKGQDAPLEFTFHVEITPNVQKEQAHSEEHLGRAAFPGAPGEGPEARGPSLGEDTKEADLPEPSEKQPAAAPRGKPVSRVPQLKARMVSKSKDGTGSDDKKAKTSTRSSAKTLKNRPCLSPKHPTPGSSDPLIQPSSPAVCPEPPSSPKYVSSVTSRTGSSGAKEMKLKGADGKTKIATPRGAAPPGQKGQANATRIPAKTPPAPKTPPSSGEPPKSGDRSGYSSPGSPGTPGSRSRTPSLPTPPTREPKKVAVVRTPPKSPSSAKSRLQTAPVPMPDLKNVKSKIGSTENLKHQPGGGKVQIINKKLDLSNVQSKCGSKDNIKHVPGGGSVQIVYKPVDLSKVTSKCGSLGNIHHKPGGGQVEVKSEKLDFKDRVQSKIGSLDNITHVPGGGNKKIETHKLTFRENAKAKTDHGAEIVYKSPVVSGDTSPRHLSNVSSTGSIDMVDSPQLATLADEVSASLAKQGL
UniProt Q61851, residues 21-801: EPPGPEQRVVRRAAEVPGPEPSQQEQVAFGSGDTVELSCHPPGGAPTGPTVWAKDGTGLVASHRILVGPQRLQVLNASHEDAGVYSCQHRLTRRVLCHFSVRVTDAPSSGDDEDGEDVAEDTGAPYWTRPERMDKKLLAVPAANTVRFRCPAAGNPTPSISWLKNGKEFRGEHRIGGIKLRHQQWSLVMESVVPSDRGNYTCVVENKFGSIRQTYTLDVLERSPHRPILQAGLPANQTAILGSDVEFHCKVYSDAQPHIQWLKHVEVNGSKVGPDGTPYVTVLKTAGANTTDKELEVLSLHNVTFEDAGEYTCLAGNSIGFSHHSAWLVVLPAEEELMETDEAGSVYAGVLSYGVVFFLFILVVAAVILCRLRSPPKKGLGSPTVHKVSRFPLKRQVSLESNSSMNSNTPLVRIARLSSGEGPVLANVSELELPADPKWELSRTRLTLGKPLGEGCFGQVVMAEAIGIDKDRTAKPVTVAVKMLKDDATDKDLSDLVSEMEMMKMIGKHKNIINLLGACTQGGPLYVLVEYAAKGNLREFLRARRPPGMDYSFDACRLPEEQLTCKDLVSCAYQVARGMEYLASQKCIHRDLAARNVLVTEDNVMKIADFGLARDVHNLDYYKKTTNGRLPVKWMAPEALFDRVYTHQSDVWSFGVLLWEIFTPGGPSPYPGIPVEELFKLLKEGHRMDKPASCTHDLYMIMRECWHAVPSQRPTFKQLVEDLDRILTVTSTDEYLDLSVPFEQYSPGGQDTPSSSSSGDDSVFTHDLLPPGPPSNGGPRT

In the case of “extracellular human tau P301L from tau-conditioned medium (TCM) (from UniProt P10636-8)”, the binding [1] is reported as “binds”.
For “fibroblast growth factor receptor 3 (FGFR3), endogenous in mouse neuronal cells (from UniProt Q61851 21-801)”, the binding [2] was “binds”.

Reference: paper PMC11297141
